Measurements taken from US20230242871A1, “GENERATION OF PRIMORDIAL GERM CELLS AND METHODS OF USING THE SAME” (The Board of Trustees of the Leland Stanfor Junior …, priority 2020, published 2023).

How the values were obtained:
Assay in all cases: High-throughput cell-surface marker screening (LEGENDScreen), %PE+
Format in all cases: cell-based, human
Conditions in all cases: percentage of cells bound to the PE-conjugated antibody (LEGENDScreen)
[1] = system: undifferentiated hPSC (D0)
D3.5 SOX17-GFP- non-PGCs = system: D3.5 SOX17-GFP- non-PGCs
D3.5 SOX17-GFP+ PGCs = system: D3.5 SOX17-GFP+ PGCs

Molecule	% PE+ in H1 UD [1] [%]	% PE+ in non-PGCs (D3.5 SOX17-GFP- non-PGCs) [%]	% PE+ in PGCs (D3.5 SOX17-GFP+ PGCs) [%]
CD156c (protein, UniProt O14672 214-748, looked up) Disintegrin and …: TTSAEKNTCQLYIQTDHLFFKYYGTREAVIAQISSHVKAIDTIYQTTDFSGIRNISFMVKRIRINTTADEKDPTNPFRFPNIGVEKFLELNSEQNHDDYCLAYVFTDRDFDDGVLGLAWVGAPSGSSGGICEKSKLYSDGKKKSLNTGIITVQNYGSHVPPKVSHITFAHEVGHNFGSPHDSGTECTPGESKNLGQKENGNYIMYARATSGDKLNNNKFSLCSIRNISQVLEKKRNNCFVESGQPICGNGMVEQGEECDCGYSDQCKDECCFDANQPEGRKCKLKPGKQCSPSQGPCCTAQCAFKSKSEKCRDDSDCAREGICNGFTALCPASDPKPNFTDCNRHTQVCINGQCAGSICEKYGLEECTCASSDGKDDKELCHVCCMKKMDPSTCASTGSVQWSRHFSGRTITLQPGSPCNDFRGYCDVFMRCRLVDADGPLARLKKAIFSPELYENIAEWIVAHWWAVLLMGIALIMLMAGFIKICSVHTPSSNPKLPPPKPLPGTLKRRRPPQPIQQPQRQRPRESYQMGHMRR	99.8	0.9234	0.9838
CD164 (protein, UniProt Q04900 24-197, looked up) Sialomucin core protein 24: DKNTTQHPNVTTLAPISNVTSAPVTSLPLVTTPAPETCEGRNSCVSCFNVSVVNTTCFWIECKDESYCSHNSTVSDCQVGNTTDFCSVSTATPVPTANSTAKPTVQPSPSTTSKTVTTSGTTNNTVTPTSQPVRKSTFDAASFIGGIVLVLGVQAVIFFLYKFCKSKERNYHTL	99.3	0.5852	0.3723
CD166 (protein, UniProt Q13740 28-583, looked up) CD166 antigen: WYTVNSAYGDTIIIPCRLDVPQNLMFGKWKYEKPDGSPVFIAFRSSTKKSVQYDDVPEYKDRLNLSENYTLSISNARISDEKRFVCMLVTEDNVFEAPTIVKVFKQPSKPEIVSKALFLETEQLKKLGDCISEDSYPDGNITWYRNGKVLHPLEGAVVIIFKKEMDPVTQLYTMTSTLEYKTTKADIQMPFTCSVTYYGPSGQKTIHSEQAVFDIYYPTEQVTIQVLPPKNAIKEGDNITLKCLGNGNPPPEEFLFYLPGQPEGIRSSNTYTLTDVRRNATGDYKCSLIDKKSMIASTAITVHYLDLSLNPSGEVTRQIGDALPVSCTISASRNATVVWMKDNIRLRSSPSFSSLHYQDAGNYVCETALQEVEGLKKRESLTLIVEGKPQIKMTKKTDPSGLSKTIICHVEGFPKPAIQWTITGSGSVINQTEESPYINGRYYSKIIISPEENVTLTCTAENQLERTVNSLNVSAISIPEHDEADEISDENREKVNDQAKLIVGIVVGLLLAALVAGVVYWLYMKKSKTASKHVNKDLGNMEENKKLEENNHKTEA	99.8	0.7401	0.8099
CD179b (protein, UniProt P15814 38-213, looked up) Immunoglobulin lambda-like …: LLRPTAASQSRALGPGAPGGSSRSSLRSRWGRFLLQRGSWTGPRCWPRGFQSKHNSVTHVFGSGTQLTVLSQPKATPSVTLFPPSSEELQANKATLVCLMNDFYPGILTVTWKADGTPITQGVEMTTPSKQSNNKYAASSYLSLTPEQWRSRRSYSCQVMHEGSTVEKTVAPAECS	0.1	0.0001117	0
CD180 (protein, UniProt Q99467 24-661, looked up) CD180 antigen: WDQMCIEKEANKTYNCENLGLSEIPDTLPNTTEFLEFSFNFLPTIHNRTFSRLMNLTFLDLTRCQINWIHEDTFQSHHQLSTLVLTGNPLIFMAETSLNGPKSLKHLFLIQTGISNLEFIPVHNLENLESLYLGSNHISSIKFPKDFPARNLKVLDFQNNAIHYISREDMRSLEQAINLSLNFNGNNVKGIELGAFDSTIFQSLNFGGTPNLSVIFNGLQNSTTQSLWLGTFEDIDDEDISSAMLKGLCEMSVESLNLQEHRFSDISSTTFQCFTQLQELDLTATHLKGLPSGMKGLNLLKKLVLSVNHFDQLCQISAANFPSLTHLYIRGNVKKLHLGVGCLEKLGNLQTLDLSHNDIEASDCCSLQLKNLSHLQTLNLSHNEPLGLQSQAFKECPQLELLDLAFTRLHINAPQSPFQNLHFLQVLNLTYCFLDTSNQHLLAGLPVLRHLNLKGNHFQDGTITKTNLLQTVGSLEVLILSSCGLLSIDQQAFHSLGKMSHVDLSHNSLTCDSIDSLSHLKGIYLNLAANSINIISPRLLPILSQQSTINLSHNPLDCTCSNIHFLTWYKENLHKLEGSEETTCANPPSLRGVKLSDVKLSCGITAIGIFFLIVFLLLLAILLFFAVKYLLRWKYQHI	0.13	1.582E-05	0
CD194 (protein, UniProt P51679 1-360, looked up) C-C chemokine receptor type 4: MNPTDIADTTLDESIYSNYYLYESIPKPCTKEGIKAFGELFLPPLYSLVFVFGLLGNSVVVLVLFKYKRLRSMTDVYLLNLAISDLLFVFSLPFWGYYAADQWVFGLGLCKMISWMYLVGFYSGIFFVMLMSIDRYLAIVHAVFSLRARTLTYGVITSLATWSVAVFASLPGFLFSTCYTERNHTYCKTKYSLNSTTWKVLSSLEINILGLVIPLGIMLFCYSMIIRTLQHCKNEKKNKAVKMIFAVVVLFLGFWTPYNIVLFLETLVELEVLQDCTFERYLDYAIQATETLAFVHCCLNPIIYFFLGEKFRKYILQLFKTCRGLFVLCQYCGLLQIYSADTPSSSYTQSTMDHDLHDAL	0.46	0.004667	0.006234
CD1b (protein, UniProt P29016 18-333, looked up) T-cell surface glycoprotein …: SEHAFQGPTSFHVIQTSSFTNSTWAQTQGSGWLDDLQIHGWDSDSGTAIFLKPWSKGNFSDKEVAELEEIFRVYIFGFAREVQDFAGDFQMKYPFEIQGIAGCELHSGGAIVSFLRGALGGLDFLSVKNASCVPSPEGGSRAQKFCALIIQYQGIMETVRILLYETCPRYLLGVLNAGKADLQRQVKPEAWLSSGPSPGPGRLQLVCHVSGFYPKPVWVMWMRGEQEQQGTQLGDILPNANWTWYLRATLDVADGEAAGLSCRVKHSSLEGQDIILYWRNPTSIGSIVLAIIVPSLLLLLCLALWYMRRRSYQNIP	0.31	0.0005789	0
CD1c (protein, UniProt P29017 18-333, looked up) T-cell surface glycoprotein …: NADASQEHVSFHVIQIFSFVNQSWARGQGSGWLDELQTHGWDSESGTIIFLHNWSKGNFSNEELSDLELLFRFYLFGLTREIQDHASQDYSKYPFEVQVKAGCELHSGKSPEGFFQVAFNGLDLLSFQNTTWVPSPGCGSLAQSVCHLLNHQYEGVTETVYNLIRSTCPRFLLGLLDAGKMYVHRQVRPEAWLSSRPSLGSGQLLLVCHASGFYPKPVWVTWMRNEQEQLGTKHGDILPNADGTWYLQVILEVASEEPAGLSCRVRHSSLGGQDIILYWGHHFSMNWIALVVIVPLVILIVLVLWFKKHCSYQDIL	1.19	5.8313E-05	0
CD200 (protein, UniProt P41217 31-278, looked up) OX-2 membrane glycoprotein: QVQVVTQDEREQLYTPASLKCSLQNAQEALIVTWQKKKAVSPENMVTFSENHGVVIQPAYKDKINITQLGLQNSTITFWNITLEDEGCYMCLFNTFGFGKISGTACLTVYVQPIVSLHYKFSEDHLNITCSATARPAPMVFWKVPRSGIENSTVTLSHPNGTTSVTSILHIKDPKNQVGKEVICQVLHLGTVTDFKQTVNKGYWFSVPLLLSIVSLVILLVLISILLYWKRHRNQDRGELSQGVQKMT	99.9	0.7485	0.9689
CD206 (protein, UniProt P22897 19-1456, looked up) Macrophage mannose receptor 1: LLDTRQFLIYNEDHKRCVDAVSPSAVQTAACNQDAESQKFRWVSESQIMSVAFKLCLGVPSKTDWVAITLYACDSKSEFQKWECKNDTLLGIKGEDLFFNYGNRQEKNIMLYKGSGLWSRWKIYGTTDNLCSRGYEAMYTLLGNANGATCAFPFKFENKWYADCTSAGRSDGWLWCGTTTDYDTDKLFGYCPLKFEGSESLWNKDPLTSVSYQINSKSALTWHQARKSCQQQNAELLSITEIHEQTYLTGLTSSLTSGLWIGLNSLSFNSGWQWSDRSPFRYLNWLPGSPSAEPGKSCVSLNPGKNAKWENLECVQKLGYICKKGNTTLNSFVIPSESDVPTHCPSQWWPYAGHCYKIHRDEKKIQRDALTTCRKEGGDLTSIHTIEELDFIISQLGYEPNDELWIGLNDIKIQMYFEWSDGTPVTFTKWLRGEPSHENNRQEDCVVMKGKDGYWADRGCEWPLGYICKMKSRSQGPEIVEVEKGCRKGWKKHHFYCYMIGHTLSTFAEANQTCNNENAYLTTIEDRYEQAFLTSFVGLRPEKYFWTGLSDIQTKGTFQWTIEEEVRFTHWNSDMPGRKPGCVAMRTGIAGGLWDVLKCDEKAKFVCKHWAEGVTHPPKPTTTPEPKCPEDWGASSRTSLCFKLYAKGKHEKKTWFESRDFCRALGGDLASINNKEEQQTIWRLITASGSYHKLFWLGLTYGSPSEGFTWSDGSPVSYENWAYGEPNNYQNVEYCGELKGDPTMSWNDINCEHLNNWICQIQKGQTPKPEPTPAPQDNPPVTEDGWVIYKDYQYYFSKEKETMDNARAFCKRNFGDLVSIQSESEKKFLWKYVNRNDAQSAYFIGLLISLDKKFAWMDGSKVDYVSWATGEPNFANEDENCVTMYSNSGFWNDINCGYPNAFICQRHNSSINATTVMPTMPSVPSGCKEGWNFYSNKCFKIFGFMEEERKNWQEARKACIGFGGNLVSIQNEKEQAFLTYHMKDSTFSAWTGLNDVNSEHTFLWTDGRGVHYTNWGKGYPGGRRSSLSYEDADCVVIIGGASNEAGKWMDDTCDSKRGYICQTRSDPSLTNPPATIQTDGFVKYGKSSYSLMRQKFQWHEAETYCKLHNSLIASILDPYSNAFAWLQMETSNERVWIALNSNLTDNQYTWTDKWRVRYTNWAADEPKLKSACVYLDLDGYWKTAHCNESFYFLCKRSDEIPATEPPQLPGRCPESDHTAWIPFHGHCYYIESSYTRNWGQASLECLRMGSSLVSIESAAESSFLSYRVEPLKSKTNFWIGLFRNVEGTWLWINNSPVSFVNWNTGDPSGERNDCVALHASSGFWSNIHCSSYKGYICKRPKIIDAKPTHELLTTKADTRKMDPSKPSSNVAGVVIIVILLILTGAGLAAYFFYKKRRVHLPQEGAFENTLYFNSQSSPGTSDMKDLVGNIEQNEHSVI	0.25	0.000365	0
CD213α2 (protein, UniProt Q14627 27-380, looked up) Interleukin-13 receptor …: DTEIKVNPPQDFEIVDPGYLGYLYLQWQPPLSLDHFKECTVEYELKYRNIGSETWKTIITKNLHYKDGFDLNKGIEAKIHTLLPWQCTNGSEVQSSWAETTYWISPQGIPETKVQDMDCVYYNWQYLLCSWKPGIGVLLDTNYNLFYWYEGLDHALQCVDYIKADGQNIGCRFPYLEASDYKDFYICVNGSSENKPIRSSYFTFQLQNIVKPLPPVYLTFTRESSCEIKLKWSIPLGPIPARCFDYEIEIREDDTTLVTATVENETYTLKTTNETRQLCFVVRSKVNIYCSDDGIWSEWSDKQCWEGEDLSKKTLLRFWLPFGFILILVIFVTGLLLRKPNTYPKMIPEFFCDT	0.24	0.00233	0
